The record followed here is US20250090663A1.

Numbering of substitutions follows the chain as printed. Results are given in words; binding and its absence hold for the method and conditions named. Some entries that bind do so weakly or less than the wild type. For some assays here: Sequences can lack the tags named with a protein.

For experiment [1], the target named is IL13RA2 Protein, Rhesus macaque, His tag (Rhesus macaque). Description: BLI; summary of Table 9B.
In experiment [2] the target is T1, CD70 (antigen of the Carterra KD analysis) (UniProt P32970).
T1 sequence (looked up): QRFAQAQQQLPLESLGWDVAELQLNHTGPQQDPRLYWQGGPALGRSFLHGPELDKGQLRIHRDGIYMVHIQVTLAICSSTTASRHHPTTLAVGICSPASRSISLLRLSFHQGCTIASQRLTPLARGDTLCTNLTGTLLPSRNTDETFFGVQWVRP
Description: Carterra KD analysis of VHH-Fc fusion constructs.

B1: VH52f3 (VHH)
VHH: QVQLQESGGGLVQPGGSLRLSCEVSGSIFSINRMAWYRQVPEKEREMVAQITYGDTIKYYGSAKGRFTISRDSAKNAVYLQMNSLKPEDTAVYRCNIVGVLTTGHYEDSFWGQGTQVTVPS
modifications: biotinylated (site not stated)
For B1, the binding entry in experiment [1] is on record as “binds”.

B2: VH53f3 (VHH)
VHH: B1 VHH with F29S, E42G, R71K, D108N, P120S
modifications: biotinylated (site not stated)
For B2, in experiment [1], the binding entry is recorded as “binds”.

B3: VH36f1 (VHH)
VHH: QVQLQESGGGSVQPGGSLRLSCAASGINISSDVMEWFRQGPGEQRELVAHITTNSRTEYADFVKGRFTISRANAKNTLYLQMNGLKPEDTALYYCALRRGGRILWGQGTQVTVSS
modifications: biotinylated (site not stated)
Regarding B3, the binding entry in experiment [1] was “binds”.

B4: IL13Ra2_2TIG4_f3 (VHH)
VHH: QVQLQESGGGLVQPGGSLRLSCAASGRTYGMGWFRQAPGKEREFVAVGVWSSGNTYYADFARGRFTISRDNAKNTVYLQMDSLKPEDTAVYYCAAPRYSSYTTYHAAYDYWGPGTQVTVSS
modifications: biotinylated (site not stated)
Consider B4, for which the binding result in experiment [1] was “binds”.

B5: H1-Fc (anti-CD70 VHH-Fc fusion polypeptide) (Fc fusion, not shown: a dimerising Fc or GST)
chain: QVQLQESGGGLVQAGGSLRLSCAAPRSIFSINAMGWYRQAPGKQRELVAAITSGGSPTYADSVKGRFTISRDNAKNTVYLQMNSLKAEDTAVYYCATGPYGLDNALDAWGQGTQVTVSS
Turning to B5, in experiment [2], the binding entry was “binds”.
